Test results as given in paper PMC8745339.
Results are given in words; binding and its absence hold for the method and conditions named. For part of these data: In cells and extracts the contact can be indirect. Some binding calls cover weakened binding; strength is not graded here. Tags and fused reporters may be left off the sequences shown. One block for each molecule: values may come before it.

Tests used:
[1] = target: T1, GUN4-nLUC (Arabidopsis thaliana) (UniProt Q9LX31); experiment: split reporter; bimolecular luciferase complementation (BiLC); nLUC and cLUC fusions co-injected with Agrobacterium GV3101 into tobacco leaves, luciferase signal read with a CCD imager three days later
T1 sequence: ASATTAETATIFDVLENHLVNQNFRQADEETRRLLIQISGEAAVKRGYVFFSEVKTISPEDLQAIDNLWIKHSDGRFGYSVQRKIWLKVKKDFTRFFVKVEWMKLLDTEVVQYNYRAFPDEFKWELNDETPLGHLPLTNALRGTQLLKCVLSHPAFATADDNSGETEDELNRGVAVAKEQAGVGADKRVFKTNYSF

[2] = target: T2, GENOME UNCOUPLED 4 (GUN4), Gal4 BD fusion (Arabidopsis thaliana) (UniProt Q9LX31); experiment: two-hybrid; Gal4 system in yeast Y2H Gold; positive when colonies turned blue on SD/-Trp/-Leu/-Ade/-His/x-α-Gal plates
T2 sequence: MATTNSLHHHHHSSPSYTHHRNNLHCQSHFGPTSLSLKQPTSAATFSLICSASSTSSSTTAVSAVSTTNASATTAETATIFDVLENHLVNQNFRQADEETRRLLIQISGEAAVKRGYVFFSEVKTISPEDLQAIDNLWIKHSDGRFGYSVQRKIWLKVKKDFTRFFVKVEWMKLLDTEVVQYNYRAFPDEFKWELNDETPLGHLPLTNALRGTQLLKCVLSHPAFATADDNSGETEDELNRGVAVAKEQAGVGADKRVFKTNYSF

binding [1]: binds
Molecule: SRP43-cLUC (from UniProt O22265 57-373)

binding [2]: binds
B1: SIGNAL RECOGNITION PARTICLE 54 KDA SUBUNIT (SRP54), Gal4 AD fusion (protein, UniProt P37107 1-564)
chain: MEALQFSSVNRVPCTLSCTGNRRIKAAFSSAFTGGTINSASLSSSRNLSTREIWSWVKSKTVVGHGRYRRSQVRAEMFGQLTGGLEAAWSKLKGEEVLTKDNIAEPMRDIRRALLEADVSLPVVRRFVQSVSDQAVGMGVIRGVKPDQQLVKIVHDELVKLMGGEVSELQFAKSGPTVILLAGLQGVGKTTVCAKLACYLKKQGKSCMLIAGDVYRPAAIDQLVILGEQVGVPVYTAGTDVKPADIAKQGLKEAKKNNVDVVIMDTAGRLQIDKGMMDELKDVKKFLNPTEVLLVVDAMTGQEAAALVTTFNVEIGITGAILTKLDGDSRGGAALSVKEVSGKPIKLVGRGERMEDLEPFYPDRMAGRILGMGDVLSFVEKATEVMRQEDAEDLQKKIMSAKFDFNDFLKQTRAVAKMGSMTRVLGMIPGMGKVSPAQIREAEKNLLVMEAMIEVMTPEERERPELLAESPERRKRIAKDSGKTEQQVSALVAQIFQMRVKMKNLMGVMEGGSIPALSGLEDALKAEQKAPPGTARRKRKADSRKKFVESASSKPGPRGFGSGN

binding [1]: binds
B2: SRP54-cLUC (protein, UniProt P37107 76-564)
chain: EMFGQLTGGLEAAWSKLKGEEVLTKDNIAEPMRDIRRALLEADVSLPVVRRFVQSVSDQAVGMGVIRGVKPDQQLVKIVHDELVKLMGGEVSELQFAKSGPTVILLAGLQGVGKTTVCAKLACYLKKQGKSCMLIAGDVYRPAAIDQLVILGEQVGVPVYTAGTDVKPADIAKQGLKEAKKNNVDVVIMDTAGRLQIDKGMMDELKDVKKFLNPTEVLLVVDAMTGQEAAALVTTFNVEIGITGAILTKLDGDSRGGAALSVKEVSGKPIKLVGRGERMEDLEPFYPDRMAGRILGMGDVLSFVEKATEVMRQEDAEDLQKKIMSAKFDFNDFLKQTRAVAKMGSMTRVLGMIPGMGKVSPAQIREAEKNLLVMEAMIEVMTPEERERPELLAESPERRKRIAKDSGKTEQQVSALVAQIFQMRVKMKNLMGVMEGGSIPALSGLEDALKAEQKAPPGTARRKRKADSRKKFVESASSKPGPRGFGSGN
